Holding throughout (experiment): binding assay
What all share (conditions): No purified-protein binding assay in this paper (Kd values cited). TAS on plasma EVs: 0.1 uM Cy5-aptamer, 1x PBS, 2 mM MgCl2, 25 C, 2 h; label: Cy5; single-stranded DNA

Amino acid sequences for entries named in this document (tags omitted). Residues count along the entry.
UniProt P16422, 24-265: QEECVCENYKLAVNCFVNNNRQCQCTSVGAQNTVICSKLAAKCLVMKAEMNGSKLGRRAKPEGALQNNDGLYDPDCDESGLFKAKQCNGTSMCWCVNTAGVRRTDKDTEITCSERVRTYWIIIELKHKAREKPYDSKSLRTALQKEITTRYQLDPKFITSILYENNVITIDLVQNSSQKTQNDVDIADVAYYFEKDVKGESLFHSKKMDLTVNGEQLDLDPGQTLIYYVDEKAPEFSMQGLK

Data set [1] has as its target EpCAM (UniProt P16422).
Data set [2] has as its target HER2 (UniProt P04626).
In data set [3] the target is EGFR (UniProt P00533).
Data set [4] concerns the target T1, CEA (UniProt P06731).
T1 sequence (looked up, limits assumed): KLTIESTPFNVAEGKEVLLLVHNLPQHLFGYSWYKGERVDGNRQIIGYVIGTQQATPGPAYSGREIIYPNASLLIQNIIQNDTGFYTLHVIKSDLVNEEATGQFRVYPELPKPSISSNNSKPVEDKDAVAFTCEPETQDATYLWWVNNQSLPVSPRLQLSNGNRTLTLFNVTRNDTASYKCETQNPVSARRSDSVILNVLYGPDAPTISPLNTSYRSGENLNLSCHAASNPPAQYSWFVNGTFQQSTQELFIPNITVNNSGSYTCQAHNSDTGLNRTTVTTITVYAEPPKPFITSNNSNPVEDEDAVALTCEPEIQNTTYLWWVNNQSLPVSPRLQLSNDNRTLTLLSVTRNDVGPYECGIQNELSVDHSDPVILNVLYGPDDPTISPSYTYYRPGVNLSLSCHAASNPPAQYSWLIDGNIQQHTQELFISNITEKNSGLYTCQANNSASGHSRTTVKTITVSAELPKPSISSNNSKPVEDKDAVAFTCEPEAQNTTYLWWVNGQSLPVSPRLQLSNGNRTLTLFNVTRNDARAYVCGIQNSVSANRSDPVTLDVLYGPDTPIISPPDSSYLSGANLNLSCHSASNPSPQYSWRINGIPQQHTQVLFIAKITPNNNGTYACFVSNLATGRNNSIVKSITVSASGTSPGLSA

The exact form of at least one protein or probe is not confirmed. For some of these results: Where a protein sequence is shown, tags need not be part of it.

As for “CACTACAGAGGTTGCGTCTGTCCCACGTTGTCATGGGGGGTTGGCCTG [EpCAM aptamer]”, the dissociation constant Kd in data set [1] was 0.0228 µM.

The sequence “GGGCCGTCGAACACGAGCATGGTGCGTGGACCTAGGATGACCTGAGTACTGTCC [HER2 aptamer]” had a dissociation constant (Kd) in data set [2] of 0.27 µM.

Take “TACCAGTGCGATGCTCAGTGCCGTTTCTTCTCTTTCGCTTTTTTTGCTTTTGAGCATGCTGACGCATTCGGTTGAC [EGFR aptamer]”: the dissociation constant Kd in data set [3] turned out to be 0.056 µM.

TTAACTTATTCGACCATA [CEA aptamer] came in with a Kd in data set [4] of 0.005 µM.

In general, Kd refers to the concentration at which binding is half-saturated. Lower therefore signals a tighter complex.
